This test can be described thus: IkB Signaling. As to conditions: ABC-DLBCL IkBa-CBG/CBR dual luciferase ratio (green luciferase fused to IkBa over red control in OCI-Ly3 lymphoma cells), 4 h. A digest of the protocol: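 In this assay, an IκBα–CBG68 fusion accumulates when IKK-driven degradation is blocked; native CBR normalizes for cell number. OCI-Ly3 cells were treated 4 h with compound and doxycycline, then green and red light read after Chroma-Glo addition.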
Setting [1] is: measured here: control luc red channel unless noted.

This note sets out measurements from PubChem BioAssay AID445 (National Center for Advancing Translational Sciences (NCATS), 2006).

Structures are written as SMILES. The list shows a part of the results. Further columns of the screen follow, without active or inactive calls. Most of these compounds were active or inconclusive in the main read-out, so they are no random draw. The note in brackets gives the kind of curve behind each potency; many fits are weak.

As usually defined, the AC50 is the concentration at which the activity in the assay is half-maximal. On to `COc1ccc(C(=O)Nc2ccc(-n3nncc3-c3ccccc3)cc2)cc1OC`, for which the concentration at half-maximal activity (AC50) under setting [1] is 31.6 µM [falling, single point].
The same measure, in the same setting: in the case of `COc1ccc(OC)c(CNC(=O)C2CCN(c3nc4ccccc4nc3C(F)(F)F)CC2)c1` it was 25.1 µM [rising, partial curve]; in that of `Cc1ccc(-n2nc(CO)c(C(=O)NCc3cccnc3)n2)cc1`, 25.1 µM [falling, single point].
Consider `CCc1ccc(S(=O)(=O)c2cn(Cc3ccccc3)c3cc(F)c(F)cc3c2=O)cc1`, for which the AC50 under setting [1] is 10 µM [falling, partial curve].
Still for that read-out and setting: in the case of `CCc1ccccc1Nc1nc2ccccc2c2nncn12` it was 39.8 µM [falling, single point]; in that of `COc1cc(NC(=O)Nc2cccc(-c3noc(C)n3)c2)cc(OC)c1OC`, 39.8 µM [falling, single point]; in that of `Cc1cc(N2C(=O)CC(N3CCN(c4ccc(C(=O)c5cccs5)cc4)CC3)C2=O)no1` (stereo not given), 3.16 µM [falling, full curve].
Turning to `Cc1ccc(Cl)cc1NC(=O)Cc1ccc(-n2c(C)nc3cccnc32)cc1`, the AC50 under setting [1] is 12.6 µM [falling, partial curve].
The same measure, in the same setting: in the case of `CCCc1nn2c(=O)cc(COC(=O)c3ccccc3NC(=O)c3cccs3)nc2s1` it was 12.6 µM [rising, partial curve].
`COc1ccc(N(Cc2cccs2)C(=O)c2ccc(OCC(C)C)cc2)cc1`: the half-maximal activity concentration (AC50) under setting [1] was 7.94 µM [falling, partial curve].
As for `O=C(CSc1ncccc1-c1nc2ccccc2[nH]1)N1CCN(c2ccccc2F)CC1`, the concentration at half-maximal activity (AC50) under setting [1] was 0.398 µM [falling, full curve].
On the same count and under the same terms, in the case of `Cc1ccc(OCC(=O)Nc2ccc(Cl)c(-c3nc4ncccc4o3)c2)c(C)c1` it was 10 µM [falling, partial curve]; in that of `CCOC(=O)c1cccc(NC(=O)c2cc3c(-c4cccc(OC)c4)nn(C)c3s2)c1`, 3.98 µM [falling, full curve].
Same read-out and setting: in the case of `Cc1ccc(S(=O)(=O)c2nc(S(C)(=O)=O)sc2N(C)Cc2ccccc2)cc1` it was 15.8 µM [falling, partial curve]; in that of `COc1ccc(NCc2cc3cc4c(cc3n(CC(=O)Nc3cc(C)cc(C)c3)c2=O)OCO4)cc1`, 10 µM [falling, partial curve]; in that of `O=C(COc1ccccc1Cl)Nc1nnc(S(=O)(=O)N2CCCCCC2)s1`, 0.0398 µM [rising, full curve, poor fit].
Same read-out and setting: in the case of `CCOC(=O)COc1ccccc1C1C(C(=O)OC)=C(C)NC2=C1C(=O)c1ccccc12` (stereo not given) it was 39.8 µM [falling, single point]; in that of `COc1cc(NC(=O)CCc2c(C)nc3cc(-c4ccccc4)nn3c2C)cc(OC)c1OC`, 7.94 µM [falling, partial curve].
Consider `COc1ccccc1N(CC(=O)Nc1ccc2c(c1)OCO2)S(=O)(=O)c1ccccc1`, for which the AC50 under setting [1] was 12.6 µM [falling, partial curve].
The same measure, in the same setting: in the case of `Cc1ccc2c(c1)c(=O)c(C(=O)c1ccc3c(c1)OCO3)cn2Cc1ccc(Cl)cc1` it was 20 µM [falling, partial curve]; in that of `CSc1ccc(/C=C/c2nc3ccccc3n2S(=O)(=O)c2cccc(Cl)c2)cc1`, 0.02 µM [falling, full curve]; in that of `CCC(CC)C(=O)Nc1nnc(SCc2cc(=O)n3cccc(C)c3n2)s1`, 39.8 µM [falling, single point].
On the same count and under the same terms, in the case of `Cc1oc2ncnc(N3CCCCC3)c2c1C(=O)N1CCN(c2cccc(Cl)c2)CC1` it was 39.8 µM [falling, single point].
Turning to `CCCN1C(=O)C2(c3ccccc31)c1c(oc3ccc(F)cc3c1=O)C(=O)N2CCCOC(C)C` (stereo not given), under setting [1], the AC50 was 25.1 µM [falling, partial curve].
Consider `CC(C)(C)n1nnnc1C(c1cccs1)N1CCCc2ccccc21` (stereo not given), for which, under setting [1], the AC50 was 20 µM [falling, partial curve].
On the same count and under the same terms, in the case of `CCc1nonc1NC(=O)c1oc2ccc(Br)cc2c1C` it was 0.631 µM [rising, full curve]; in that of `NC(=O)c1c(NC(=O)CSc2nnc(-c3ccco3)n2-c2ccccc2)sc2c1CCC2`, 15.8 µM [falling, partial curve]; in that of `CCOc1ccccc1N1CCN(c2nc(N)c(C#N)c(CC#N)c2C#N)CC1`, 25.1 µM [falling, single point].
Take `Cc1ccc(NC(=O)C2CCCN(S(=O)(=O)c3cccc4cccnc34)C2)cc1` (stereo not given): under setting [1], the half-maximal activity concentration (AC50) was 39.8 µM [falling, single point].
As to `O=C(/C=C/Nc1ccccc1Br)c1ccccn1`, the AC50 under setting [1] is 15.8 µM [falling, partial curve].
Same read-out and setting: in the case of `Cc1ccc(Cl)cc1NC(=O)c1oc2ccc(S(=O)(=O)N3CCCCC3)cc2c1C` it was 0.398 µM [rising, full curve]; in that of `CCOC(=O)N1CCC(Nc2c(N3CCN(c4cc(Cl)ccc4C)CC3)c(=O)c2=O)CC1`, 15.8 µM [falling, partial curve].
Consider `Cc1nn(C(C)C(=O)N2CCN(c3ccc(Cl)cc3)CC2)c(=O)c2cc3occc3n12` (stereo not given), for which the concentration at half-maximal activity (AC50) under setting [1] is 15.8 µM [falling, partial curve].
`Cc1ccc(S(=O)(=O)N2CCC(C(=O)Nc3ccc(C)c(Cl)c3)CC2)cc1`: the AC50 under setting [1] is 3.16 µM [falling, full curve].
With `COc1ccc(CCNC(=O)C(=O)NCC(c2cccs2)S(=O)(=O)c2ccc(C)cc2)cc1` (stereo not given), the AC50 under setting [1] is 39.8 µM [falling, partial curve, poor fit].
As for `CCOC(=O)c1c(C)[nH]c(C)c1S(=O)(=O)N1CCN(c2cccc(C(F)(F)F)c2)CC1`, under setting [1], the concentration at half-maximal activity (AC50) was 25.1 µM [falling, single point].
Same read-out and setting: in the case of `COc1ccc(C(=O)Nc2cccc(C)c2)cc1` it was 10 µM [falling, partial curve].
Take `Cc1ccnc(-n2sc3ccccc3c2=O)n1`: under setting [1], the AC50 was 12.6 µM [falling, partial curve].
On to `COc1ccc(CNC(=O)CCCn2nc(C)c3c(C)n(-c4ccccc4)nc3c2=O)cc1`, for which the AC50 under setting [1] was 20 µM [falling, single point].
With `COc1ccc(OC)c(NS(=O)(=O)c2ccc(-c3cc(C)no3)s2)c1`, the AC50 is 15.8 µM [rising, partial curve] (measured here: IkB-luc green channel) and 5.01 µM [rising, partial curve] (measured here: control luc red channel).
As to `CCn1cc2nc(SCc3cccc(Cl)c3)n(Cc3ccc(C)cc3)c(=O)c2n1`, the AC50 under setting [1] was 25.1 µM [falling, single point].
Still for that read-out and setting: in the case of `O=C(O)C1CC(=O)N(c2ccc(OCc3ccccc3Cl)cc2)C1` (stereo not given) it was 6.31 µM [falling, partial curve]; in that of `CC(C)c1cnc2c(c1SCC(=O)Nc1cccc(F)c1)c(=O)n(C)c(=O)n2C`, 31.6 µM [falling, single point]; in that of `O=C(Nc1cccc(F)c1)C1CCN(S(=O)(=O)c2cccc3nsnc23)CC1`, 39.8 µM [falling, single point].
The same measure, in the same setting: in the case of `COc1cc2c(cc1OC)CN(c1ccc(-c3ccccc3OC)nn1)CC2` it was 12.6 µM [falling, partial curve]; in that of `CN=c1scc(C)n1/N=C/c1ccc2c(c1)OCO2`, 25.1 µM [falling, single point]; in that of `CCCN(CCC)S(=O)(=O)c1ccc(C(=O)Nc2sc3c(c2C(=O)OC)CCN(CC)C3)cc1`, 31.6 µM [falling, partial curve].
Same read-out and setting: in the case of `O=C(CN1CCSc2ccccc21)N1CCN(c2ccc(F)cc2)CC1` it was 31.6 µM [falling, partial curve, poor fit].
For `CCCN(Cc1cccs1)C(=O)Nc1cc(OC)ccc1OC`, the AC50 under setting [1] is 15.8 µM [falling, single point].
On the same count and under the same terms, in the case of `O=C(Nc1ccccc1F)c1cc(S(=O)(=O)N2CCCCC2)cs1` it was 20 µM [falling, partial curve].
Same read-out and setting: in the case of `Cc1ccc(-n2nc3c(N4CCC(C(=O)NCc5ccccc5Cl)CC4)nnc(C)c3c2C)cc1` it was 10 µM [falling, partial curve]; in that of `N#CC1=C2SCN(Cc3ccco3)CN2C(=O)CC1c1cccc2ccccc12` (stereo not given), 10 µM [falling, partial curve].
As to `Cc1ccc(-c2nn3c(C)nnc3s2)cc1NC(=O)c1ccc(-c2cccc(Cl)c2)o1`, the AC50 under setting [1] is 3.98 µM [falling, full curve].
With `Cc1cc(=O)c2cc(C(=O)Nc3ccccc3C)ccc2[nH]1`, under setting [1], the AC50 is 1.26 µM [rising, partial curve].
Same read-out and setting: in the case of `CCOc1cc2sc(N3CCC(C(=O)Nc4cc(C)cc(C)c4)CC3)nc2cc1Br` it was 12.6 µM [falling, partial curve]; in that of `COC(=O)c1ccc(CSc2nnc3ccc4ccccc4n23)cc1`, 31.6 µM [falling, single point].
On the same count and under the same terms, in the case of `Cn1ncc2c(Nc3ccc4ccccc4c3)ncnc21` it was 1 µM [rising, full curve].
On to `COc1ccccc1Cn1cc(C(=O)c2ccc(C)cc2)c(=O)c2cc3c(cc21)OCCO3`, for which the AC50 under setting [1] is 15.8 µM [falling, single point].
Still for that read-out and setting: in the case of `CCn1cc2c(n1)-c1c(oc(C(=O)Nc3cccc(C(F)(F)F)c3)c1C)CC2` it was 20 µM [falling, partial curve]; in that of `Cc1cc(C(=O)Nc2cc(C)n(Cc3ccc(Cl)cc3)n2)no1`, 25.1 µM [falling, partial curve].
Same read-out and setting: in the case of `c1ccc(Nc2nc(-c3cccs3)cs2)nc1` it was 7.94 µM [falling, partial curve]; in that of `Cc1ccc(NC(=O)C(=O)NCc2ccco2)cc1`, 7.94 µM [falling, partial curve].
As to `COc1ccccc1OCC(=O)NCC(c1ccc(Cl)cc1)N1CCOCC1` (stereo not given), the AC50 under setting [1] is 25.1 µM [falling, single point].
Consider `O=C(NCCc1ccccc1)c1noc2c1CCCCC2`, for which the half-maximal activity concentration (AC50) under setting [1] was 7.94 µM [falling, partial curve].
